PubChem BioAssay AID504444 (National Center for Advancing Translational Sciences (NCATS), 2011)
Out of some 360,000 compounds screened, about 7,500 (2.1%) were called active. The inconclusive results got no clear call from the source; some entries with a clear call stand among them for comparison. Calls follow the shape of the dose curve; as a rule, active = well fitted inhibition curve with a large enough effect; inconclusive = small, poorly fitted or top-dose-only effect, or effect the other way; inactive = flat fitted curve, though single readings scatter. A potency beside an inconclusive call is a rough fit, not a confirmed value.

Test: Nrf2 qHTS screen for inhibitors; also: nearly all actives have a fitted effect of over 60% in size
Settings: A549 ARE-Fluc reporter, luciferase luminescence, 18-24 h; series mostly up to 46 µM
Description: NIH Molecular Libraries Probe Production Network [MLPCN]
NIH Chemical Genomics Center [NCGC]
Assay Provider: Shyam Biswal, Johns Hopkins University
Nrf2 is a transcription factor that maintains cellular redox homoestasis and protects cells from xenobiotics. Nrf2 binds to the antioxidant response element (ARE) to induce gene expression of a broad spectrum of genes that encode for antioxidants. […] Finding a small molecule that act as an inhibitor of Nrf2 function would represent a novel therapeutic target that could lead to improvement in survival of patients undergoing chemo- and/or radio- therapy.
This is the Nrf2 activity measured in the luminescent read.
1. Shibata, T., et al., Genetic Alteration of Keap1 Confers Constitutive Nrf2 Activation and Resistance to Chemotherapy in Gallbladder Cancer. Gastroenterology, 2008.
2. Sjoblom, T., et al., The consensus coding sequences of human breast and colorectal cancers. Science, 2006. 314(5797): p. 268-74.
NCGC Assay Protocol Summary:
A concentration-response assay was performed with A549 ARE_Fluc cells which are suspended in 5% FBS OPTI-MEM. Five uL were dispensed into 1536-well white TC-treated plate using the Kalypsys dispenser to achieve a density of 5000 cells/well in all columns except column 1. The plate is incubated at 37deg C at 5% CO2 for 2 hours before 23 nL of compounds are added with the Kalypsys pin tool equipped with a 1,536-pin array containing 10-nL slotted pins (FP1S10, 0.457-mm diameter, 50.8 mm long; V&P Scientific). The control compounds Budesonide and Staurosporine are both added at a concentration of 2mM and Budesonide is also added as a 1:10 titration, starting at 200uM, to achieve dose-response. After an 18-24 hour incubation at 37deg C at 5% CO2, 5ul of medium is added to column 1. Afterwards 1ul of 5x of CellTiter-Fluor (Promega) is added to every well. The plate is then incubated at 37deg C at 5% CO2 for 30 minutes before they are read on the ViewLux (Perkin Elmer) for a fluorescent read Ex=405(10)/Em=525(10) for a 3 second exposure, 2x binning, and high gain. Then 3 uL of 3x BugLite is dispensed into all wells and the plate is incubated at ambient room temperature for 15 minutes. Afterwards another ViewLux read is performed using the clear filter to get a luminescent read with the settings of 40 second exposure, 2x binning, and high gain. Cytotoxicity is assessed through the first fluorescent read and then biochemical activity against Nrf2 is measured in the luminescent read.
Potency is read from the fitted curve at half-maximal effect.

| Structure (SMILES) | Potency |
| --- | --- |
| O=C(O)CN1C(=O)/C(=C\c2cc(Br)ccc2OCc2ccc([N+](=O)[O-])cc2)SC1=S | inconclusive: 18.4 µM [falling, single point] |
| Cc1csc(=O)n1CCC(=O)OCC(=O)NNC(=O)c1ccccc1 | inactive |
| Cc1ccccc1Cc1c(C)nc2c(C(=O)NCc3ccco3)cnn2c1C | inconclusive: 29.1 µM [falling, single point] |
| COc1ccc(-n2ncc3c(NCc4ccco4)ncnc32)cc1 | inconclusive: 10.3 µM [activator, partial curve, poor fit] |
| CCOc1ccc(Nc2nnc(-n3nc(C)cc3C)c3ccccc23)cc1 | inactive |
| Cc1cc(OCC(=O)Nc2cccc(S(=O)(=O)N3CCCC3)c2)ccc1Cl | active: 16.4 µM |
| CCCc1cc(C(=O)N2CCCC(C(=O)c3cc(C)c(OC)c(C)c3)C2)n(C)n1 (configuration not stated) | inconclusive: 11.6 µM [falling, partial curve, poor fit] |
| Cc1ccc2nc(-c3ccccn3)c(NC3CCCC3)n2c1 | inconclusive: 32.6 µM [falling, single point] |
| O=C(Cn1c(=O)n(Cc2ccc3c(c2)OCO3)c(=O)c2oc3ccccc3c21)Nc1ccccc1F | inconclusive: 1.03 µM [activator, partial curve, poor fit] |
| COCCNC(=O)c1cc2c(-c3ccccc3F)nn(C)c2s1 | inconclusive: 20.6 µM [falling, single point] |
| COc1ccc(NC(=O)c2cccc(NC(=O)c3ccccc3)c2)c(OC)c1 | inconclusive: 11.6 µM [falling, partial curve, poor fit] |
| CCOc1ccc(NC(=O)CSc2nc3nc4c(cc3c(=O)n2CC)COC(C)(C)C4)cc1 | inconclusive: 10.3 µM [falling, partial curve, poor fit] |
| CC(=O)Nc1cccc(S(=O)(=O)N2CCN(S(=O)(=O)c3ccc4c(c3)OCCO4)CC2)c1 | inconclusive: 32.6 µM [falling, partial curve, poor fit] |
| CC(=O)Oc1c(Sc2ccccc2[N+](=O)[O-])c(C)nn1C(C)(C)C | inconclusive: 18.4 µM [falling, partial curve] |
| CCn1c(=O)c(C(=O)NNS(=O)(=O)c2ccc(Cl)cc2)c(O)c2ccccc21 | inconclusive: 29.1 µM [falling, single point] |
| Cc1occc1C(=O)N1CCN(c2ccc(Cl)cc2)CC1 | inconclusive: 23.1 µM [falling, single point] |
| Cc1noc(C)c1COc1cccc(C(=O)Nc2ccc(C#N)cc2)c1 | inconclusive: 20.6 µM [falling, partial curve] |
| CCCCNC(=S)Nc1cc(S(=O)(=O)N2CCCCC2)ccc1C | inconclusive: 32.6 µM [falling, partial curve, poor fit] |
| COc1cc(C(=O)Nc2nc3ccccc3[nH]2)cc(OC)c1OC | inconclusive: 2.59 µM [falling, full curve] |
| O=[N+]([O-])c1ccc(-c2cc(-c3ccc(Cl)cc3)n[nH]2)cc1 | inconclusive: 29.1 µM [activator, partial curve, poor fit] |
| CCCCC(=O)Nc1cccn2ncnc12 | inconclusive: 5.8 µM [falling, full curve] |

As a working copy, part of the list above.

| Structure (SMILES) | Potency |
| --- | --- |
| Cc1cc(OCC(=O)Nc2cccc(S(=O)(=O)N3CCCC3)c2)ccc1Cl | active: 16.4 µM |
| CCCc1cc(C(=O)N2CCCC(C(=O)c3cc(C)c(OC)c(C)c3)C2)n(C)n1 (configuration not stated) | inconclusive: 11.6 µM [falling, partial curve, poor fit] |

Following part:

| Structure (SMILES) | Potency |
| --- | --- |
| O=C(Cn1cncn1)c1ccccc1Br | inconclusive: 1.03 µM [falling, partial curve] |
| CCOc1ccc(NC(=O)Cn2c(=O)c(CNc3ccc(CC)cc3)cc3cc4c(cc32)OCO4)cc1 | inconclusive: 11.6 µM [activator, partial curve, poor fit] |
| Cc1cccc(NC(=O)CSc2ccc3nnc(-c4cccnc4)n3n2)c1 | inconclusive: 29.1 µM [falling, partial curve, poor fit] |
| COC(=O)Cc1c(C)c2ccc(OC(=O)c3ccco3)cc2oc1=O | inconclusive: 18.4 µM [activator, partial curve, poor fit] |
| Cn1nc(C(F)(F)F)c(/C=N/OC(=O)c2ccccc2)c1SCc1ccccc1Cl | inconclusive: 29.1 µM [falling, single point] |
| CC(Sc1nnc(-c2ccco2)n1N)C(=O)NC1CCCCC1C (configuration not stated) | inconclusive: 29.1 µM [falling, single point] |
| Cc1ccc(CNc2ncnc3onc(-c4ccc(F)cc4)c23)cc1 | inconclusive: 5.8 µM [falling, partial curve] |
| O=C(Nc1c2c(nn1-c1ccccc1)CS(=O)C2)c1ccc(S(=O)(=O)N2CCOCC2)cc1 (configuration not stated) | inconclusive: 5.17 µM [activator, partial curve] |
| Cc1ccc(-c2nc(CS(=O)CC(=O)N3CCN(c4cccc(Cl)c4)CC3)c(C)o2)cc1 (configuration not stated) | active: 23.1 µM |
| COc1ccc(NC(=O)CN(C)CC(=O)Nc2cccc(F)c2)cc1Cl | inconclusive: 23.1 µM [falling, partial curve] |
| Cc1ccc2cccc(NC(=O)COc3ccccc3Cl)c2n1 | inconclusive: 2.31 µM [falling, partial curve, poor fit] |
| Cc1ccc(C)c(Cn2c(CCCNC(=O)C3CCCCC3)nc3ccccc32)c1 | inconclusive: 29.1 µM [falling, single point] |
| O=C(NCc1cccc(Cl)c1)c1ccc(S(=O)(=O)Nc2cccc(C(F)(F)F)c2)cc1 | inconclusive: 18.4 µM [falling, single point] |
| COc1ccccc1Cn1c(C(C)C)nc2ccccc21 | inconclusive: 0.231 µM [falling, partial curve, poor fit] |
| Cc1c(Cl)cccc1NC(=O)Cn1cc(C(=O)c2cccs2)c2ccccc21 | active: 6.51 µM |
| O=C(COC(=O)c1cccs1)c1ccc2c(c1)OCCO2 | inconclusive: 14.6 µM [activator, partial curve] |
| Cc1ccc(C(=O)OC(C)C(=O)NC2CCCCC2C)cc1S(=O)(=O)N1CCCCC1 (configuration not stated) | inconclusive: 29.1 µM [falling, single point] |
| O=c1c(Cl)c(Cl)cnn1-c1ccccc1 | inconclusive: 18.4 µM [falling, single point] |
| COc1ccccc1N1CCN(C(=O)c2oc3ccccc3c2C)CC1 | inconclusive: 1.64 µM [falling, partial curve, poor fit] |
| S=c1[nH]nc(-c2ccccn2)n1/N=C/c1ccc(-c2ccccc2Cl)o1 | inconclusive: 16.4 µM [activator, single point] |
| O=C(c1ccco1)N1CCn2c1nc1ccccc12 | inconclusive: 9.2 µM [activator, partial curve] |

| Structure (SMILES) | Potency |
| --- | --- |
| CCc1cccc(NC(=O)CN2Cc3ccccc3C2=O)c1 | inactive |
| COc1cc(-c2c(-c3cc(OC)c(OC)c(OC)c3)noc2C)ccc1F | inconclusive: 1.46 µM [activator, full curve] |
| COc1ccc(-c2cc(C)no2)cc1S(=O)(=O)NCc1cccs1 | inconclusive: 5.8 µM [activator, single point] |
| O=S(=O)(c1ccc2ccccc2c1)N1CCN(C(=S)Nc2ccccc2F)CC1 | active: 14.6 µM |
| O=C(COc1ccc2ccccc2c1)Nc1nccs1 | inconclusive: 0.651 µM [activator, full curve] |
| CC(=O)N1CCc2c(sc3c2c(=O)n(-c2ccc(C)cc2)c(=O)n3Cc2c(F)cccc2Cl)C1 | inconclusive: 29.1 µM [falling, single point] |
| COc1ccccc1CNC(=O)c1cccn1-c1nnc(N2CCCCC2)s1 | inconclusive: 25.9 µM [activator, single point] |
| CCc1ccc(NC(=O)c2cnn(-c3ccccc3)c2C)cc1 | inconclusive: 29.1 µM [activator, single point] |
| COC(=O)c1c(NC(=O)Cc2coc3cc(C)ccc23)sc2c1CCCC2 | inactive |
| CCN(CC(=O)Nc1ccccc1OC)C(=O)c1ccc2[nH]c3c(c2c1)CC(C)CC3 (configuration not stated) | inconclusive: 23.1 µM [falling, single point] |
| CC1CN(S(=O)(=O)c2ccc(NC(=O)c3cc(-c4ccccc4O)n[nH]3)cc2)CC(C)O1 (configuration not stated) | inconclusive: 20.6 µM [falling, single point] |
| CCN(C(=O)c1cc2c(C)nc3ccccc3c2o1)c1cc(Cl)ccc1OC | inconclusive: 29.1 µM [falling, single point] |
| CCCc1cc(C(=O)Nc2cccnc2)no1 | inconclusive: 0.517 µM [activator, single point] |
| CC(C)(C)OC(=O)N1CCC[C@H]1c1nnc(SCC(=O)Nc2ccc(Br)cc2)o1 | inconclusive: 25.9 µM [falling, single point] |
| CC(=O)N1CCN(C2=NC(=O)C(=C3CCCCC3)S2)CC1 | inconclusive: 20.6 µM [activator, partial curve] |
| COc1cc(N=CC2=C(O)c3ccccc3C2=O)cc(OC)c1 | inconclusive: 23.1 µM [activator, single point] |
| C=CCC[C@@H](Cc1ccc(F)cc1)C(=O)OC[C@@H](Cc1c[nH]c2ccccc12)NC(=O)[C@H](CC=C)CC(=O)N[C@H](CO)Cc1ccccc1 | inconclusive: 29.1 µM [falling, single point] |
| Cc1cccc(OCc2ccc(-c3nc(C#N)c(NCc4cccnc4)o3)o2)c1 | inconclusive: 18.4 µM [falling, single point] |
| Cc1ccc(S(=O)(=O)Nc2ccccc2C(O)c2ccccc2)cc1 (configuration not stated) | inconclusive: 25.9 µM [falling, partial curve, poor fit] |
| O=C(O)CCN1C(=O)c2ccccc2C1=O | inactive |

Sorted by SMILES length (ascending): part of the list above

| Structure (SMILES) | Potency |
| --- | --- |
| O=C(O)CCN1C(=O)c2ccccc2C1=O | inactive |
| COc1ccccc1CNC(=O)c1cccn1-c1nnc(N2CCCCC2)s1 | inconclusive: 25.9 µM [activator, single point] |
| Cc1cccc(OCc2ccc(-c3nc(C#N)c(NCc4cccnc4)o3)o2)c1 | inconclusive: 18.4 µM [falling, single point] |
| O=S(=O)(c1ccc2ccccc2c1)N1CCN(C(=S)Nc2ccccc2F)CC1 | active: 14.6 µM |
